From PubChem BioAssay AID2417 (National Center for Advancing Translational Sciences (NCATS), 2010)
In all, about 140,000 compounds went through this assay and about 4,300 (3.1%) were called active. Inconclusive results, whose numbers are uncertain, are shown with a selection of clear calls.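 How the source made its calls: active means readout at or below -70, meaning at least 70% loss of cells showing the perinucleolar compartment, a nuclear body marking cancer cells; inconclusive means readout between -30 and a set limit; inactive means the rest.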

Assay: High Content Assay for Compounds that inhibit the Assembly of the Perinucleolar Compartment;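 further: plate controls were DMSO wells for no effect and camptothecin positive control wells for full effect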
Conditions: PC3M PTB-GFP, PNC prevalence imaging, 16 h; at 10 µM; active compounds read low
In short: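 Compounds are pinned in duplicate onto adhered PC3M cells stably expressing GFP-tagged PTB and incubated 16 h at 37 C. Cells are then fixed, nuclei stained with Hoechst, and PNC-positive cells counted.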

Row | SMILES | activity change (PNC), negative = inhibition
1 | CCCC(=O)NC(=S)NNC(=O)c1ccc([N+](=O)[O-])cc1 | inconclusive: -30.4%
2 | Cc1cccc(S(=O)(=O)C(C#N)c2nc3ccccc3nc2N2CC(C)OC(C)C2)c1 (configuration not stated) | inconclusive: -61.8%
3 | CN(c1ccccc1)c1ccc(/C=C(\C#N)c2nnc3n2CCCCC3)cc1[N+](=O)[O-] | active: -90.8%
4 | CCN(CC)c1ccc2cc(C(N)=O)c(=O)oc2c1 | active: -105%
5 | Cc1ccc(C)c(NC2=CC(=O)CC(C)(C)C2)c1C#N | inactive: -9.32%
6 | Cc1cc(C)c(Cn2cnc(-c3ccc([N+](=O)[O-])cc3)c2)c(C)c1 | inconclusive: -54.5%
7 | CN(c1ccccc1)S(=O)(=O)c1ccc(Cl)c(C(=O)Nc2ccc(-c3nc4ccccc4[nH]3)cc2)c1 | inconclusive: -48.3%
8 | Cn1c(C(=O)NC2CC2)cc2c(=O)n(C)c3ccccc3c21 | inactive: 2.06%
9 | CC(C)c1ccc(N(C(=O)c2csnn2)C(C(=O)NC(C)(C)C)c2ccncc2)cc1 (configuration not stated) | inactive: -27%
10 | COC1(OC)N=C(N)C2(C#N)C(c3ccccc3)NC(C)=CC12C#N (configuration not stated) | inconclusive: -50.7%
11 | Cc1ccc(/C(O)=C2/C(=O)C(=O)N(CCCn3ccnc3)C2c2ccccn2)cc1 (configuration not stated) | inactive: 7.74%
12 | COCCCNC(=O)CCCn1c(=O)c2ccccc2n(CC(=O)Nc2c(C)cc(C)cc2C)c1=O | inconclusive: -39.7%
13 | COc1ccc(N2Cc3ccccc3C2)cc1Cl | inconclusive: -39.2%
14 | COC(=O)C1=C(C)OC(N)=C(C#N)C1c1ccc(OC)c(OC)c1OC (configuration not stated) | inconclusive: -53.3%
15 | Cc1ccc(C(=O)OC(C(=O)Nc2ccc(Cl)cc2C(F)(F)F)c2ccccc2)cc1 (configuration not stated) | inactive: 20.1%
16 | Cc1cc(C)nc(Nc2ccc(N3CCOCC3)cc2)n1 | inconclusive: -65.7%
17 | COc1cc(C(N)=O)cc(Cl)c1OCc1ccccc1 | inconclusive: -37.5%
18 | CC(C)c1ccc(C(=O)NCc2ccc(Cl)cc2)cc1 | inactive: -7.93%
19 | O=C1c2ccccc2C(=O)N1CSc1nnc2c3ccccc3n(CCc3ccccc3)c2n1 | inactive: -20.4%

Row | SMILES | activity change (PNC), negative = inhibition
20 | Cc1ccc(C(=O)NC2CC(C)(C)NC(C)(C)C2)cc1C | inactive: 17.2%
21 | CC1=C(C(=O)OCCOc2ccccc2)C(c2ccc(C)o2)C2=C(CC(C)(C)CC2=O)N1 (configuration not stated) | inconclusive: -43.9%
22 | Cc1cc(N(C)C)c(C#N)c(NCc2ccccc2)n1 | inactive: 26.6%
23 | CCOC(=O)c1ccc(N2C(=O)c3n[nH]c(-c4ccco4)c3C2c2cccc([N+](=O)[O-])c2)cc1 (configuration not stated) | inconclusive: -30.4%
24 | Cc1ccsc1C=C1C(=O)c2ccccc2C1=O | inconclusive: -54.4%
25 | O=C(Nc1nc2ccccc2[nH]1)C1CC(=O)N(c2ccc3c(c2)OCCO3)C1 (configuration not stated) | inconclusive: -76.6%
26 | COC(=O)C(O)(CC(=O)Nc1ccc(OC(F)(F)F)cc1)C(F)(F)F (configuration not stated) | inconclusive: -41.5%
27 | Cc1ccccc1OCCN1C(=O)NC2(CCc3ccccc32)C1=O (configuration not stated) | inconclusive: -68.3%
28 | Cc1ccc(NC2SC(=O)N(Cc3cccc(C(=O)O)c3)C2=O)cc1 (configuration not stated) | inactive: 7.13%
29 | COC(=O)c1cc2occc2n1Cc1c(F)cccc1Cl | inactive: -12.4%
30 | COc1ccc(N2CCN(CC(O)COc3ccc4c(c3)CCC4)CC2)cc1 (configuration not stated) | inactive: 0.448%
31 | CCOC(=O)Cn1nc(C)c2ccccc2c1=O | inactive: -4.54%
32 | CCOC(=O)c1c(C=O)c(C)n(Cc2ccccc2Cl)c1C | inconclusive: -36.5%
33 | CCOC(=O)c1c(/N=C/N(C)C)sc(/C=N/Nc2ccccc2)c1-c1ccccc1Cl | inactive: 48.7%
34 | Cc1ccccc1NC(=O)Cc1cn(C)c2ccccc12 | inconclusive: -31.5%
35 | O=c1cc(CNc2ccc(Br)cc2)nc2sccn12 | inactive: -20.6%
36 | Cc1nc(Cl)sc1C(=O)NC(C)c1ccc(Cl)cc1 (configuration not stated) | inconclusive: -57.7%
37 | COc1ccc(N2C(=O)C3C4C=CC(C4)C3C2=O)c(OC)c1 (configuration not stated) | inactive: 5.85%
38 | CCCC(=O)Nc1ccc(C(=O)NCCCn2ccnc2)cc1 | inconclusive: -34%

Quoted at random: 2 compounds from above
Row | SMILES | activity change (PNC), negative = inhibition
34 | Cc1ccccc1NC(=O)Cc1cn(C)c2ccccc12 | inconclusive: -31.5%
29 | COC(=O)c1cc2occc2n1Cc1c(F)cccc1Cl | inactive: -12.4%

Remaining list, next part

Row | SMILES | activity change (PNC), negative = inhibition
39 | Cc1ccc(S(=O)(=O)NCCn2c(C)cc3ccccc32)cc1 | inconclusive: -33.6%
40 | Cc1c(Cl)cccc1NC(=S)NCc1cccs1 | inconclusive: -34.6%
41 | O=C(NCCc1ccc(Cl)cc1)C1CCC(=O)N1Cc1ccc(F)cc1 (configuration not stated) | inconclusive: -61.5%
42 | CCCc1nc2ccccc2c(=O)n1/N=C/c1ccccc1O | inconclusive: -57.1%
43 | Cc1ccccc1OCC(=O)N/N=C/c1ccc([N+](=O)[O-])o1 | inconclusive: -68.3%
44 | Cc1ccc2cc(CN(CCN3CCCC3)C(=O)Nc3ccc(F)cc3)c(=O)[nH]c2c1C | inactive: 33.2%
45 | CS(=O)(=O)N1CCN(c2ccc([N+](=O)[O-])c(N3CCOCC3)c2)CC1 | inactive: 2.45%
46 | Cc1cc(C(N)=O)c2ccccc2n1 | inconclusive: -33.9%
47 | Cn1c(-c2sccc2OCc2ccccc2)n[nH]c1=S | inactive: 12.6%
48 | CCOC(=O)C1=C(C)NC(=O)NC1/C=C/c1ccccc1 (configuration not stated) | inconclusive: -49.9%
49 | Cc1ccc(S(=O)(=O)NCC(=O)OCN2C(=O)c3ccccc3C2=O)cc1 | inactive: 12.4%
50 | Cc1cc(C)cc(OCC(=O)Nc2nonc2NC(=O)COc2cc(C)cc(C)c2)c1 | inconclusive: -55.6%
51 | CCC(C)(C(=O)NC1CCCCC1)N(Cc1ccco1)C(=O)c1ccccn1 (configuration not stated) | inactive: 26.4%
52 | O=C(CCc1ccccc1)NC(NC(=S)Nc1ccc(Br)cc1)C(Cl)(Cl)Cl (configuration not stated) | inconclusive: -33.7%
53 | CCCOc1ccc(C(=O)C(c2ccccc2)N2CCOCC2)cc1 (configuration not stated) | inactive: -5.73%
54 | COc1ccc(N2CCN(C(=O)C3CCC(Cn4c(=S)[nH]c5ccccc5c4=O)CC3)CC2)cc1 (configuration not stated) | inconclusive: -62.1%
55 | CCOC(=O)c1sc2nc(C)nc(SCC(N)=O)c2c1C | inconclusive: -42.9%
56 | Cc1cc(C(=O)O)c(CCCN)s1 | inconclusive: -48.3%
57 | CCOC(=O)C(NC(C)=O)(Nc1ccc(S(=O)(=O)Nc2cc(C)nc(C)n2)cc1)C(F)(F)F (configuration not stated) | inconclusive: -53.9%

Entries from the list above that have two or more sulfur atoms:
Row | SMILES | activity change (PNC), negative = inhibition
40 | Cc1c(Cl)cccc1NC(=S)NCc1cccs1 | inconclusive: -34.6%
47 | Cn1c(-c2sccc2OCc2ccccc2)n[nH]c1=S | inactive: 12.6%
55 | CCOC(=O)c1sc2nc(C)nc(SCC(N)=O)c2c1C | inconclusive: -42.9%
